PubChem BioAssay AID686937 | Drosophila RNAi Screening Center | 2013

Aim: 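Genes whose loss weakens secretory pathway function in fly cells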 (primary screen)
System: Drosophila S2 cells expressing secreted horseradish peroxidase
Reagents: long dsRNA against Drosophila genes
Time to read-out: about 5.5 days (5 days dsRNA, then 12 h reporter induction)
Conditions: reporter expression induced after 5 days of dsRNA, read 12 h later; inducer not stated
Detection: 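After 5 days of dsRNA and 12 h of reporter induction, medium peroxidase read by chemiluminescence and scored as per-plate z-score; higher values mean more reporter released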
Direction: z-score: higher = more reporter secreted into medium
In all, the deposit lists about 23,000 reagents; below is a random part of those that have a named target and a result. 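Reduced-secretion tags in replicate 1 do not always agree with the z-scores; no criterion for assigning the tags was given.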 A plus sign joins genes that one reagent is predicted to hit. Further read-outs or replicates are left out here. The record does not give: the amount of reagent.

The first 13 records as a preview:
gene	amplicon	z-score, replicate 1	z-score, replicate 2
CG9926	DRSC16582	-0.35	-0.37
ssp2 (short spindle 2)	DRSC11052	0.66	0.54
CG15186	DRSC12566	0.23	0.41
CG14238	DRSC14732	0.41	0.7
CG9117	DRSC03141	-0.11	0.13
CG1773	DRSC06688	0.3	0.29
grh (grainy head)	DRSC05680	0.43	0.38
grh (grainy head)	DRSC05683	-1.55	-1.4
grh (grainy head)	DRSC07624	0.16	0.23
grh (grainy head)	DRSC07625	-0.05	0.07
Chro (Chromator)	DRSC11630	-0.53	0.27
CG11125	DRSC06042	0.16	0.13
PIG-B (Phosphatidylinositol glycan anchor biosynthesis class B)	DRSC08216	0.45	0.53

The list itself, repeating the preview:
gene	amplicon	z-score, replicate 1	z-score, replicate 2
CG9926	DRSC16582	-0.35	-0.37
ssp2 (short spindle 2)	DRSC11052	0.66	0.54
CG15186	DRSC12566	0.23	0.41
CG14238	DRSC14732	0.41	0.7
CG9117	DRSC03141	-0.11	0.13
CG1773	DRSC06688	0.3	0.29
grh (grainy head)	DRSC05680	0.43	0.38
grh (grainy head)	DRSC05683	-1.55	-1.4
grh (grainy head)	DRSC07624	0.16	0.23
grh (grainy head)	DRSC07625	-0.05	0.07
Chro (Chromator)	DRSC11630	-0.53	0.27
CG11125	DRSC06042	0.16	0.13
PIG-B (Phosphatidylinositol glycan anchor biosynthesis class B)	DRSC08216	0.45	0.53
PIG-B (Phosphatidylinositol glycan anchor biosynthesis class B)	DRSC22598	0.17	-0.12
FeCH (Ferrochelatase)	DRSC16948	-0.03	0.24
CG12910	DRSC06225	0.52	0.52
Lip3 (Lipase 3)	DRSC16727	0.32	0.51
tpr (tracheal-prostasin)	DRSC04468	0.32	0.22
Rad1 + Sws1	DRSC00778	0.34	0.25
hts (hu li tai shao)	DRSC05791	0.22	0.34
CG8195	DRSC07103	0.51	0.49
hoe1 (hoepel1)	DRSC00265	0.34	0.38
hoe1 (hoepel1)	DRSC00333	0.02	0.14
hoe1 (hoepel1)	DRSC00353	0.74	0.51
CAH2 (Carbonic anhydrase 2)	DRSC10746	0.46	0.39
tplus3a + tplus3b	DRSC03687	-0.43	0.09
Usp30 (Ubiquitin specific protease 30)	DRSC18265	-0.15	-0.12
Pcf11 (Pcf11 cleavage and polyadenylation factor subunit)	DRSC05983	-3.82	-2.42
Eogt (EGF-domain O-GlcNAc transferase)	DRSC00727	0.41	0.49
Pif2 (PFTAIRE-interacting factor 2)	DRSC12525	0.2	0.41
GstD3 (Glutathione S transferase D3)	DRSC15571	0.4	0.06
shg (shotgun)	DRSC04714	0.27	0.51
CG16935	DRSC06638	-0.17	0.04
CG32117	DRSC21652	-0.47	-0.46
nord	DRSC04210	0.25	0.25
nord	DRSC04361	0.13	0.2
CG17385	DRSC06664	0.53	0.58
CG6421	DRSC07420	0.61	0.83
l(2)k01209 (lethal (2) k01209)	DRSC06889	0.36	0.18
CG6983	DRSC10757	0.26	-0.01
Agxt (Alanine-glyoxylate aminotransferase)	DRSC18718	0.22	0.32
Cchl (Cytochrome c heme lyase)	DRSC15949	0.39	0
Taf10b + Taf10	DRSC00793	0.32	0.34
CG16890	DRSC01890	0.44	0.23
slgA (sluggish A)	DRSC20586	0.2	0.24
nop5	DRSC03582	-0.23	-0.09
Fic (Fic domain-containing protein)	DRSC03247	0.04	0.14
Mitf	DRSC17212	0.31	0.28
Mitf	DRSC21056	0.29	0.2
CG15721	DRSC19688	0.35	0.11
CG4622	DRSC04479	-0.32	-0.04
CG17167	DRSC20902	0.31	-0.27
CG17167	DRSC20903	-0.23	-0.58
nolo (no long nerve cord)	DRSC03705	0.23	0.2
nolo (no long nerve cord)	DRSC03719	0.1	0.06
nolo (no long nerve cord)	DRSC03720	0.39	0.33
Pxt (Peroxinectin-like)	DRSC17040	-0.07	0
CG6569	DRSC16067	0.13	0.45
Rpt6 (Regulatory particle triple-A ATPase 6)	DRSC20571	0.17	0.48
Nha2 + asRNA:CR43454	DRSC13594	-0.17	-1.05
CG14817	DRSC18547	0.18	0.1
Ugt307A1 (UDP-glycosyltransferase family 307 member A1)	DRSC02138	-0.12	0.18
Ppox (Protoporphyrinogen oxidase)	DRSC17033	0.2	0.32
Abca3 (ATP binding cassette subfamily A member 3)	DRSC20546	0.39	0.5
SCCRO3 (Squamous cell carcinoma-related oncogene 3)	DRSC06359	0.26	0.21
Gr21a (Gustatory receptor 21a)	DRSC00366	0.13	-0.02
CG13023	DRSC09454	0.26	-0.1
CG13023	DRSC09903	0.27	0.16
CG7872	DRSC20062	0.47	0.46
prc (pericardin)	DRSC11385	0.39	0.29
CG5614	DRSC15845	0.57	0.39
Karybeta3 (Karyopherin beta 3)	DRSC12355	-0.31	-0.47
CG42512 + CG32573	DRSC19532	-0.29	-0.09
CG42512 + CG32573	DRSC19906	0.37	0.27
CG42512 + CG32573	DRSC22782	0.66	-0.15
CG32751	DRSC21770	-0.34	-0.21
lectin-46Ca	DRSC06612	-0.09	0.28
Spx (Spliceosomal protein on the X)	DRSC18720	-3.45	-2.37
Rtf1	DRSC04085	-2.34	-2.32
CG8927	DRSC16458	0.41	0.38
Eig71Eb (Ecdysone-induced gene 71Eb)	DRSC11149	0.38	0.4
Tmtc2 (Transmembrane O-mannosyltransferase targeting cadherins 2)	DRSC00272	0.17	0.49
fws (four way stop)	DRSC02969	-0.08	-0.02
CG13056	DRSC09937	0.15	0.02
PH4alphaNE2 (prolyl-4-hydroxylase-alpha NE2)	DRSC16544	0.41	0.52
ppk6 (pickpocket 6)	DRSC06062	0.25	0.22
CG32147	DRSC09346	0.17	0.19
Rrp4	DRSC04434	0.14	0.13
CG43673 + CG43672	DRSC19452	0.31	0.26
CG43673 + CG43672	DRSC20108	0.09	0.17
fs(1)M3 (female sterile (1) M3)	DRSC18381	0.46	0.41
MED16 (Mediator complex subunit 16)	DRSC04506	-6.95	-5.51
CG5880	DRSC15906	0.49	0.43
Cyfip (Cytoplasmic FMR1 interacting protein)	DRSC15679	0.14	0.1
lncRNA:CR43435 (long non-coding RNA:CR43435)	DRSC12414	0.42	-0.02
grau (grauzone)	DRSC04691	0.43	0.33
cal1 (chromosome alignment defect 1)	DRSC15725	0.01	-0.12
CG10151	DRSC05974	0.31	0.18
Ku80	DRSC02699	0.02	0.23
RFeSP (Rieske iron-sulfur protein)	DRSC00702	-0.15	-1.11
YL-1	DRSC02765	-0.27	-0.01
Hr39 (Hormone receptor-like in 39)	DRSC03346	0.29	0.16
yem (yemanuclein)	DRSC14865	0.41	0.01
yem (yemanuclein)	DRSC17097	0.57	0.55
